# Assay results

Data taken from PubChem BioAssay AID687032, deposited by Broad Institute (2013).

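Cell survival of the PAX8-independent IOSE-T80 line, measured by CellTiterGlo ATP luminescence after four days of exposure. Percent change in signal scaled so neutral controls are 0 and the cytotoxic control is -100; more negative values mean greater loss of viability. Per repeat run, active means fitted AC50 at or below twice the top valid dose; inactive means a flat curve between -30% and 30%, an opposite effect, or AC50 above that limit; inconclusive means a flat -30% to -70% curve, a poor fit, or runs that disagree.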

Values are in %. All entries here are filed as inconclusive. These entries are mostly ones the record files as inconclusive; other results of the assay are not listed here.

SMILES,condition,activity change (%)
C[C@@H]1CN([C@@H](C)CO)C(=O)c2cc(NC(=O)Nc3ccc(C(F)(F)F)cc3)ccc2O[C@@H](C)CCCCO[C@@H]1CN(C)CC1CCCCC1,at 35 µM (top of the series),11.79
COc1ccc(Oc2ccc(/C=C/C(=O)c3cccc(OC)c3)cc2[N+](=O)[O-])cc1,at 35 µM (top of the series),6.697
O=C(CSc1ncccc1-c1nc2ccccc2[nH]1)N1CCc2ccccc21,at 35 µM (top of the series),-40.56
CCCc1ccc(C(=O)O/N=C(\N)c2ccccn2)cc1,at 35 µM (top of the series),9.725
OC(c1cc(-c2ccc(C(F)(F)F)cc2)nc(C(F)(F)F)c1)C1CCCCN1 (stereo not drawn),at 16 µM (top of the series),11.44
Cc1cc(O)c(C(C)C)cc1C1(c2cc(C(C)C)c(O)cc2C)OC(=O)c2ccccc21,at 35 µM (top of the series),4.559
COc1cc2c(c(OC)c1OC)-c1ccc(OC)c(=O)cc1[C@@H](NC(C)=O)CC2,at 35 µM (top of the series),0.094
CCN(CC)CCCNc1nc2ccccc2c2[nH]c3ccc(OC)cc3c12,at 35 µM (top of the series),26.83
COc1ccccc1C#Cc1ccc([C@H]2[C@H](C#N)N(C(=O)C3CCCC3)[C@H]2CO)cc1,at 35 µM (top of the series),13.09
CN1CCN(C(=S)Nc2ccc(Cl)c(Cl)c2)CC1,at 35 µM (top of the series),14.99
COc1ccc(CN(C)C[C@H]2OCCCC[C@H](C)Oc3ccc(NC(=O)Nc4ccc(C(F)(F)F)cc4)cc3C(=O)N([C@H](C)CO)C[C@@H]2C)cc1,at 35 µM (top of the series),11.31
COc1ccc(/C=C/C(=O)c2cc(F)ccc2OC(=O)c2ccccc2C)cc1OC,at 35 µM (top of the series),9.077
O=C(CCCN1C(=O)/C(=C/c2cccc(Br)c2)SC1=S)Nc1ccccn1,at 35 µM (top of the series),4.899
Cc1cccc(CS(=O)(=O)c2ncc(Cl)c(C(=O)Nc3ccc(F)cc3)n2)c1,at 35 µM (top of the series),13.26
O=C(Nc1cccc(Cl)c1)Nc1nnc(-c2ccncc2)s1,at 35 µM (top of the series),14.4
O=C(Nc1cccc(-c2ccc(N3CCCCC3)nn2)c1)C(F)(F)F,at 35 µM (top of the series),5.881
CCOCC(=O)NC1CCc2cc(OC(=O)COCC)c(OC)c(OC)c2-c2ccc(SC)c(=O)cc21 (stereo not drawn),at 35 µM (top of the series),8.661
CN1c2ccccc2N(C)C1(C)c1ccccc1,at 35 µM (top of the series),1.014
Cc1ccc(/C=C/C(=O)N2CCN(c3cccc(C(F)(F)F)c3)CC2)cc1,at 35 µM (top of the series),7.583
Cc1ccccc1S(=O)(=O)N1CC[C@@H]2[C@H](CO)Nc3ccc(-c4cccc(F)c4)cc3[C@@H]21,at 35 µM (top of the series),14.05
O=C(Nc1ccc(OCC(F)(F)C(F)F)c(C(F)(F)F)c1)c1ccccc1O,at 35 µM (top of the series),-51.92
CC(C)CC#Cc1ccc2c(c1)O[C@H](CN(C)Cc1ccc(C(=O)O)cc1)[C@@H](C)CN([C@H](C)CO)S2(=O)=O,at 35 µM (top of the series),11.46
C[C@@H]1CCCCO[C@H](CN(C)C(=O)Cc2ccccc2)[C@@H](C)CN([C@@H](C)CO)C(=O)c2cc(NS(=O)(=O)c3ccc(Cl)cc3)ccc2O1,at 35 µM (top of the series),2.815
N#C[C@@H]1[C@H](c2ccc(C#Cc3ccc(F)cc3)cc2)[C@@H](CO)N1C(=O)Nc1ccc(F)cc1,at 35 µM (top of the series),12.52
C[C@H]1O[C@@H](O[C@H]2[C@@H](O)C[C@H](O[C@H]3[C@@H](O)C[C@H](O[C@H]4CC[C@@]5(C)[C@H](CC[C@@H]6[C@@H]5C[C@@H](O)[C@]5(C)[C@@H](C7=CC(=O)OC7)CC[C@]65O)C4)O[C@@H]3C)O[C@@H]2C)C[C@H](O)[C@@H]1O,at 35 µM (top of the series),17.84
CSc1nc(-c2ccccc2)nc(C(Cl)Cl)n1,at 35 µM (top of the series),-48.73
CNc1ccc(Br)cc(C(=O)/C=C/c2cc(OC)ccc2OC)c1=O,at 35 µM (top of the series),4.582
COc1ccc(C)cc1NS(=O)(=O)c1ccc(-c2cnc(C3CC3)o2)cc1,at 35 µM (top of the series),4.948
COc1ccc(OC)c2sc(N(CCCN(C)C)C(=O)CCS(=O)(=O)c3ccccc3)nc12,at 35 µM (top of the series),1.548
COc1ccc2c(C)nc(Nc3nc(-c4ccccc4)cc(=O)[nH]3)nc2c1,at 35 µM (top of the series),3.2
CC(C)(C)N(Cc1ccc2c(c1)OCO2)C(=O)/C=C\S(=O)c1ccccc1 (stereo not drawn),at 35 µM (top of the series),4.977
BrC(=C\c1ccccc1)/C=N/n1cnnc1,at 35 µM (top of the series),7.306
CSc1ccc(COC(=O)c2cc([N+](=O)[O-])ccc2N2CCOCC2)cc1,at 35 µM (top of the series),2.522
COc1ccc(C2Nc3ccccc3C(=O)N2c2ccc(F)cc2)cc1CSc1ccccn1 (stereo not drawn),at 35 µM (top of the series),7.923
Clc1ccc(Cn2ncc3c(N4CCN(c5ccccc5)CC4)ncnc32)cc1,at 35 µM (top of the series),5.332
COc1ccc(-c2cnc3c(NC=O)cc(-c4cccc(NS(C)(=O)=O)c4)cn23)cc1OC,at 35 µM (top of the series),6.486
CN(C)CCCN(C(=O)CCOc1ccccc1)c1nc2c(F)cccc2s1,at 35 µM (top of the series),10.22
COc1ccc(NC(=O)C(=O)NCC2CCCN2S(=O)(=O)c2ccc(C)cc2)cc1 (stereo not drawn),at 35 µM (top of the series),6.348
COc1ccc(S(=O)(=O)Nc2ccc3c(c2)C(=O)N([C@H](C)CO)C[C@H](C)[C@H](CN(C)S(=O)(=O)c2ccc(F)cc2)OCCCC[C@H](C)O3)cc1,at 35 µM (top of the series),6.338
COc1ccc(-n2ncc(Cl)c(Cl)c2=O)cc1,at 35 µM (top of the series),11.97
O=C(Cn1ncc(Cl)c(Cl)c1=O)N1CCN(S(=O)(=O)c2ccc3ccccc3c2)CC1,at 35 µM (top of the series),14.93
CN(C)CCN(C(=O)/C=C/c1cccs1)c1nc2c(F)cc(F)cc2s1,at 35 µM (top of the series),15.65
O=C(C[C@@H]1C[C@H]2c3cc(NS(=O)(=O)c4ccc(F)cc4)ccc3O[C@H]2[C@H](CO)O1)NCc1ccc(-c2ccccc2)cc1,at 35 µM (top of the series),11.51
O=C(O)c1ccc(N/N=C/c2ccc3c(c2)OCO3)cc1,at 35 µM (top of the series),19.55
C=C(C(=O)c1ccccc1)C(C(=C)C(=O)c1ccccc1)c1ccc(OC)cc1,at 35 µM (top of the series),5.023
N#C[C@@H]1[C@H](c2ccc(C#CC3CCCCC3)cc2)[C@H](CO)N1S(=O)(=O)c1ccccc1,at 35 µM (top of the series),27.64
CN1C(=O)/C(=C\C(=O)c2cccs2)c2ccccc21,at 35 µM (top of the series),-3.734
COc1ccccc1N(C(C)=O)C1=C(Cl)C(=O)c2ccccc2C1=O,at 35 µM (top of the series),22.91
CC(=O)c1sc(NC(=O)CCS(=O)(=O)c2ccc(Cl)cc2)nc1C,at 35 µM (top of the series),3.909
CCN(CC)c1ccc2c(cc1=O)[C@@H](NC)CCc1cc(OC)c(OC)c(OC)c1-2,at 35 µM (top of the series),12.82
C[C@H]1CN([C@@H](C)CO)C(=O)Cc2cc(NC(=O)NC3CCCCC3)ccc2O[C@H]1CN(C)S(=O)(=O)c1ccc(Cl)cc1,at 35 µM (top of the series),25.25

Repeated from the top, 4 entries:

* C[C@@H]1CN([C@@H](C)CO)C(=O)c2cc(NC(=O)Nc3ccc(C(F)(F)F)cc3)ccc2O[C@@H](C)CCCCO[C@@H]1CN(C)CC1CCCCC1 [at 35 µM (top of the series)] | activity change 11.79%
* COc1ccc(Oc2ccc(/C=C/C(=O)c3cccc(OC)c3)cc2[N+](=O)[O-])cc1 [at 35 µM (top of the series)] | activity change 6.697%
* O=C(CSc1ncccc1-c1nc2ccccc2[nH]1)N1CCc2ccccc21 [at 35 µM (top of the series)] | activity change -40.56%
* CCCc1ccc(C(=O)O/N=C(\N)c2ccccn2)cc1 [at 35 µM (top of the series)] | activity change 9.725%